# PubChem BioAssay AID602196, INSERM – 2012
# Screen: 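Genes whose knock-down alters cisplatin killing of lung cancer cells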
# Cells: human A549 lung cancer cells
# Reagents: siRNA pair against human genes
# Time to read-out: 48 h transfection before cisplatin; time from cisplatin to read-out not stated
# Conditions: cisplatin at a dose killing half of control-siRNA cells; exact dose and duration not given
# Read-out: 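Shift in cisplatin death relative to control siRNA, from -50 (all cells die) to +50 (no cells die); siRNAs harmful on their own scored 0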
# Reading the numbers: two-siRNA summed score (-2 to +2): higher = both siRNAs protect from cisplatin killing; -2 means both sensitise; mean protection from cisplatin (shift in death) and protection from cisplatin (shift in death), siRNA C: higher = protection from cisplatin killing
# Active means: 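Each siRNA scores 0 if harmful alone by LDH or WST-1, otherwise +1 if it reduces and -1 if it increases cisplatin killing; a gene is active when both siRNAs agree (sum +2 or -2)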
# Calls: active = both siRNAs shift cisplatin killing the same way; inactive = no consistent shift, or siRNA harmful alone
# The whole screen tested about 23,000 reagents; below is a part drawn at random. 455 of them (2%) were called active. 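Active includes both protection and sensitisation; some change values fall well beyond the stated -50 to +50 range.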 A number with no mark means an inactive call. Further read-outs or replicates are left out here. Reagent sequences are not shown. Not given: the amount of reagent.
Gene,PubChem SID,two-siRNA summed score (-2 to +2),mean protection from cisplatin (shift in death) (%),"protection from cisplatin (shift in death), siRNA C (%)"
BLK,SID131522427,1,18.4,30.2
LRP1B,SID131500477,-1,-26.2,-13.3
LOC441307,SID131517467,0,13.5,20.3
PCNX2,SID131514591,0,8,10.8
ANO7,SID131520120,1,8.8,23.7
TUBGCP2,SID131502096,-1,-5.4,-20.8
SPNS3,SID131509852,0,2.6,-7.5
SLC39A3,SID131521161,1,12.4,20.3
PCGF3,SID131520550,1,10.3,13.1
ERGIC1,SID131505185,0,-3.6,-6.6
LOC391849,SID131513557,0,6.7,-8.4
CRYBB1,SID131504153,0,-6.3,-15.8
SPICE1,SID131507830,0,0.3,-7.9
FLRT2,SID131510415,0,3.2,0.2
FGF14,SID131518312,0,18.3,16.7
RFESD,SID131522559,1,19.9,19.8
FSCN2,SID131504474,0,-5.3,-7.9
HEXD,SID131518695,0,24.5,25.3
PROM2,SID131512353,0,5.4,13.1
LOC441097,SID131515905,0,9.9,7.4
LOC400533,SID131514942,0,8.4,14.3
SCN3A,SID131505874,0,-2.4,-8.3
MED18,SID131503972,0,-7,2.9
SCUBE2,SID131501694,-1,-8,3.7
DDX11,SID131516324,0,10.7,12.2
CDC40,SID131511996,0,5,9.4
SFMBT1,SID131508531,0,1.2,-0.9
AKR7L,SID131516171,0,10.4,14.3
SPIN1,SID131510443,0,3.3,4.3
PSD2,SID131522175,1,16.6,11.6
HYCC2,SID131512827,0,5.9,12.7
LOC441189,SID131512488,0,5.5,5.5
CYP2F1,SID131518043,0,16.1,7.2
LOC388180,SID131509956,0,2.7,1.5
RPL18A,SID131518704,0,24.7,18.9

Looked up above.
CYP2F1 [SID131518043], protection from cisplatin (shift in death), siRNA C (%) = 7.2
Entry for HYCC2 [SID131512827] in “mean protection from cisplatin (shift in death) (%)”: 5.9
Under “mean protection from cisplatin (shift in death) (%)”, RFESD [SID131522559] shows 19.9
RPL18A [SID131518704], mean protection from cisplatin (shift in death) (%): 24.7
Result of SLC39A3 [SID131521161] under “protection from cisplatin (shift in death), siRNA C (%)”: 20.3
PCGF3 [SID131520550], mean protection from cisplatin (shift in death) (%) = 10.3

Further reagents follow:
Gene,PubChem SID,two-siRNA summed score (-2 to +2),mean protection from cisplatin (shift in death) (%),"protection from cisplatin (shift in death), siRNA C (%)"
SPANXN3,SID131507624,0,0.1,4.6
POLH,SID131507021,0,-0.7,-6.5
NIPSNAP3A,SID131509566,0,2.3,-5.1
LORICRIN,SID131504556,0,-5.1,10.9
NDUFB11,SID131508292,0,0.9,-2.9
JPH1,SID131514765,0,8.2,3.7
LOC441929,SID131514961,0,8.5,13.8
DPY19L4,SID131515693,0,9.6,7.2
LOC442158,SID131512519,0,5.6,7.5
CLCA2,SID131507662,0,0.1,11.1
LOC440011,SID131517989,0,15.8,11.4
LENG1,SID131517456,0,13.5,10.6
FBXO34,SID131505492,0,-3.1,4.3
C1QTNF4,SID131511267,0,4.2,-0.4
IL24,SID131503378,0,-10.5,-7.5
FAM199X,SID131521298,1,12.9,17.9
PRICKLE1,SID131509504,0,2.2,17.1
OR14A16,SID131514388,0,7.7,6.5
LOC402367,SID131519830,1,7.7,12.6
RILP,SID131518389,0,19,25.3
LOC388949,SID131522280,1,17.4,15.2
PSAP,SID131520307,1,9.4,1.1
GNA13,SID131501816,-1,-7.2,2.4
CDS2,SID131506848,0,-0.9,3.4
TRPM1,SID131500664,-1,-18.1,-26.7
RNF180,SID131522767,1,23.4,28.5
TXLNGY,SID131511341,0,4.2,-2.5
TXLNGY,SID131519341,1,4.9,8.4
HAP1,SID131512746,0,5.8,7
IL1RAPL1,SID131503086,0,-14.1,-25
CDIN1,SID131501848,-1,-7,3
LOC441617,SID131518642,0,23.1,23.3
LOC441020,SID131519664,1,6.9,13.1
EPHB1,SID131507100,0,-0.6,5.8
LOC285550,SID131508538,0,1.2,-1.5
CAMKV,SID131522372,1,18,27.7
TRPT1,SID131505708,0,-2.7,-7.3
S100A3,SID131521743,1,14.7,17.1
